# According to patent US20220213126A1, “SMALL MOLECULE AUTOPHAGY INDUCERS FOR THE TREATMENT OF CANCER AND NEURODEGENERATIVE DISEASES” (John Wayne Cancer Institute, priority 2019, published 2022):
# At least one compound was matched to its structure with a doubt left.
# Legend:
# [1] = Pharmacokinetics of BC-4 and BC-5 in mouse plasma and brain; type: in vivo; details: Brain, Balb/c mice, single oral dose 5 mg/kg
# Procedure: Pharmacokinetics of BC-4 and BC-5 were compared to BC-1. Pharmacokinetics were assessed in Balb/c mice administered a single oral dose of 5 mg/kg of the indicated compound (Tables 11 and 12).
# [2] = Pharmacokinetics of BC-2 and BC-3 in mouse plasma and brain; type: in vivo, mice; details: Brain, single oral dose 5 mg/kg
# Procedure: Pharmacokinetics were assessed in mice administered a single oral dose of 5 mg/kg of the indicated compound (Tables 9 and 10).
smiles,measurement,setting,value
CC=C(c1ccc(OC)cc1)C(CC)c1cc(OC)cc(B(O)O)c1 (racemic) [BC-4],Cmax,[1],164 ng/g
COc1cc(/C=C/c2ccc(F)cc2)cc(B(O)O)c1 [BC-3],Cmax,[2],1950 ng/g
CCC(=C(c1ccccc1)c1ccc(OC)cc1)c1cc(OC)cc(B(O)O)c1 [BC-5],Cmax,[1],205 ng/g
